How the values were obtained:
[1] = general procedure: Fmoc solid-phase peptide synthesis; 2-CTC resin 1.15 mmol/g; Fmoc-Lys(BOC)-Wang resin 0.5 mmol/g; Rink Amide MBHA resin 0.5 mmol/g; HOBt/DIC
[2] = general procedure: Fmoc solid-phase peptide synthesis; Rink Amide MBHA resin; HOBt/DIC; conditions: whole synthesis, scale of the general procedure 1.00 g resin
[3] = whole synthesis, scale of the general procedure 1.00 g resin

| Substance | crude purity (method not given) ([1]; late stage modification step) | crude purity (method not given) [1, 3] | also measured |
| --- | --- | --- | --- |
| C18 Dicarboxylic Acid-gGlu-AEEA-AEEA-Lys(3,5 Bis[(2 bromoacetyl)amino]benzoyl)-NH2 | 50% | – | – |
| C18 Dicarboxylic Acid-gGlu-AEEA-AEEA-Lys(3,5-bis[(2-bromoacetyl)amino]benzoyl)-COOH | 59% | – | – |
| C18 Dicarboxylic Acid-gGlu-AEEA-AEEA-Lys(3,5-bis[(2-bromoacetyl)amino]benzoyl)-OH | 52% | – | – |
| C18 Dicarboxylic Acid-gGlu-AEEA-AEEA-Lys(bromoacetyl)-COOH | – | 57% | – |
| C18 Dicarboxylic Acid-gGlu-AEEA-AEEA-Lys-NH2 | – | – | crude purity (method not given) [2]: 91% |
| C20 Dicarboxylic Acid-AEEA-gGlu-gGlu-Lys(bromoacetyl)-COOH | – | 44% | – |
| C20 Dicarboxylic Acid-gGlu-AEEA-AEEA-Lys(bromoacetyl)-COOH | – | 59% | – |
